{"source": "PubChem BioAssay AID1053208 (Peter MacCallum Cancer Centre, 2014)", "purpose": "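Find knock-downs that sensitise mouse osteosarcoma cells to doxorubicin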 (primary screen)", "system": "mouse osteosarcoma cells, early-passage culture from an engineered mouse model of fibroblastic bone tumour", "knock-down reagent": "siRNA pool against mouse genes, 40 nM", "duration": "about 120 h (48 h before drug, then 72 h with drug)", "challenge": "doxorubicin 100 nM for 72 h, roughly 30-40% inhibitory dose", "measurement": "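Viability read as ATP luminescence after 72 h of 100 nM doxorubicin or none, duplicate wells averaged, scaled to non-targeting siRNA, then expressed as robust z-scores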", "direction": "viability z-score with doxorubicin: higher = more viable cells under doxorubicin; viability z-score without drug: higher = more viable cells with knock-down alone", "active means": "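Called active if knock-down leaves viability unchanged without drug (z within -2 to 2) but lowers it with doxorubicin (z at or under -2)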", "note": "The deposit covers about 17,000 reagents; this is an unselected part. 788 of all reagents (4.7%) were called active. 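Calls rest on z-score classes alone; an extra cut-off of viability at most 70% of control was not applied to them.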 Unmarked entries are inactive. Further read-outs or replicates are left out here."}
{"gene knocked down": "Nxf7 (nuclear RNA export factor 7)", "combined z-score class": "no change with or without drug", "viability z-score with doxorubicin": 0.67, "viability z-score without drug": 0.17}
{"gene knocked down": "Ptpro (protein tyrosine phosphatase receptor type O)", "combined z-score class": "no change with or without drug", "viability z-score with doxorubicin": -1.12, "viability z-score without drug": -0.34}
{"gene knocked down": "Dxo (decapping exoribonuclease)", "combined z-score class": "no change with or without drug", "viability z-score with doxorubicin": 0, "viability z-score without drug": 0.51}
{"gene knocked down": "Or4e1 (olfactory receptor family 4 subfamily E member 1)", "combined z-score class": "no change with or without drug", "viability z-score with doxorubicin": 0, "viability z-score without drug": -1.18}
{"gene knocked down": "Krt27 (keratin 27)", "combined z-score class": "no change with or without drug", "viability z-score with doxorubicin": 0.79, "viability z-score without drug": -0.17}
{"gene knocked down": "Erh (ERH mRNA splicing and mitosis factor)", "combined z-score class": "low cell count with doxorubicin only (active)", "viability z-score with doxorubicin": -2.59, "viability z-score without drug": -0.51}
{"gene knocked down": "Stk4 (serine/threonine kinase 4)", "combined z-score class": "no change with or without drug", "viability z-score with doxorubicin": 0.56, "viability z-score without drug": 0.84}
{"gene knocked down": "Tars3 (threonyl-tRNA synthetase 3)", "combined z-score class": "no change with or without drug", "viability z-score with doxorubicin": -0.9, "viability z-score without drug": -0.17}
{"gene knocked down": "Ska1 (spindle and kinetochore associated complex subunit 1)", "combined z-score class": "no change with or without drug", "viability z-score with doxorubicin": -0.22, "viability z-score without drug": -1.52}
{"gene knocked down": "Dclk3 (doublecortin-like kinase 3)", "combined z-score class": "no change with or without drug", "viability z-score with doxorubicin": -0.67, "viability z-score without drug": -1.18}
{"gene knocked down": "Zfp1006 (zinc finger protein 1006)", "combined z-score class": "high cell count with doxorubicin only", "viability z-score with doxorubicin": 2.14, "viability z-score without drug": 0.17}
{"gene knocked down": "Rpap2 (RNA polymerase II associated protein 2)", "combined z-score class": "no change with or without drug", "viability z-score with doxorubicin": 0.56, "viability z-score without drug": -0.17}

A few values from the list.
Entry of Ska1 (spindle and kinetochore associated complex subunit 1) in “viability z-score with doxorubicin”: -0.22
For “combined z-score class”, Nxf7 (nuclear RNA export factor 7) has no change with or without drug
Entry for Stk4 (serine/threonine kinase 4) in “viability z-score with doxorubicin”: 0.56
Or4e1 (olfactory receptor family 4 subfamily E member 1), combined z-score class = no change with or without drug
Result of Erh (ERH mRNA splicing and mitosis factor) under “combined z-score class”: low cell count with doxorubicin only (active)

The listing continues:
{"gene knocked down": "Arpc4 (actin related protein 2/3 complex, subunit 4)", "combined z-score class": "high cell count with and without drug", "viability z-score with doxorubicin": 2.81, "viability z-score without drug": 2.19}
{"gene knocked down": "Cxcr5 (C-X-C motif chemokine receptor 5)", "combined z-score class": "no change with or without drug", "viability z-score with doxorubicin": 0.22, "viability z-score without drug": -0.17}
{"gene knocked down": "Efna2 (ephrin A2)", "combined z-score class": "low cell count without drug only", "viability z-score with doxorubicin": -1.35, "viability z-score without drug": -2.02}
{"gene knocked down": "Fcgr3 (Fc receptor, IgG, low affinity III)", "combined z-score class": "no change with or without drug", "viability z-score with doxorubicin": -0.22, "viability z-score without drug": -0.51}
{"gene knocked down": "Nlgn3 (neuroligin 3)", "combined z-score class": "no change with or without drug", "viability z-score with doxorubicin": 0, "viability z-score without drug": 0}
{"gene knocked down": "Aldh1l1 (aldehyde dehydrogenase 1 family, member L1)", "combined z-score class": "no change with or without drug", "viability z-score with doxorubicin": 0, "viability z-score without drug": 1.18}
{"gene knocked down": "Lpar1 (lysophosphatidic acid receptor 1)", "combined z-score class": "no change with or without drug", "viability z-score with doxorubicin": -0.67, "viability z-score without drug": -1.52}
{"gene knocked down": "Cby1 (chibby family member 1, beta catenin antagonist)", "combined z-score class": "no change with or without drug", "viability z-score with doxorubicin": -0.34, "viability z-score without drug": -0.84}
{"gene knocked down": "Vmn1r215 (vomeronasal 1 receptor 215)", "combined z-score class": "no change with or without drug", "viability z-score with doxorubicin": -0.67, "viability z-score without drug": -0.17}
{"gene knocked down": "Asf1a (anti-silencing function 1A histone chaperone)", "combined z-score class": "no change with or without drug", "viability z-score with doxorubicin": 0.45, "viability z-score without drug": 0.51}
{"gene knocked down": "Thy1 (thymus cell antigen 1, theta)", "combined z-score class": "no change with or without drug", "viability z-score with doxorubicin": -0.22, "viability z-score without drug": -0.51}
{"gene knocked down": "Chrm1 (cholinergic receptor, muscarinic 1, CNS)", "combined z-score class": "no change with or without drug", "viability z-score with doxorubicin": -0.56, "viability z-score without drug": -1.01}
{"gene knocked down": "Ints8 (integrator complex subunit 8)", "combined z-score class": "no change with or without drug", "viability z-score with doxorubicin": -0.45, "viability z-score without drug": -1.01}
{"gene knocked down": "Nme8 (NME/NM23 family member 8)", "combined z-score class": "no change with or without drug", "viability z-score with doxorubicin": 0.34, "viability z-score without drug": 0.51}
{"gene knocked down": "Plac1 (placental specific protein 1)", "combined z-score class": "no change with or without drug", "viability z-score with doxorubicin": -1.57, "viability z-score without drug": -0.51}
{"gene knocked down": "Il17f (interleukin 17F)", "combined z-score class": "no change with or without drug", "viability z-score with doxorubicin": 0.22, "viability z-score without drug": 1.18}
{"gene knocked down": "Stk25 (serine/threonine kinase 25 (yeast))", "combined z-score class": "no change with or without drug", "viability z-score with doxorubicin": 0, "viability z-score without drug": 0.67}
{"gene knocked down": "Dna2 (DNA replication helicase/nuclease 2)", "combined z-score class": "no change with or without drug", "viability z-score with doxorubicin": -0.9, "viability z-score without drug": -0.51}
{"gene knocked down": "Zswim1 (zinc finger SWIM-type containing 1)", "combined z-score class": "no change with or without drug", "viability z-score with doxorubicin": 0.45, "viability z-score without drug": -1.52}
{"gene knocked down": "Ncr1 (natural cytotoxicity triggering receptor 1)", "combined z-score class": "no change with or without drug", "viability z-score with doxorubicin": 0.67, "viability z-score without drug": -1.18}
{"gene knocked down": "Galk1 (galactokinase 1)", "combined z-score class": "no change with or without drug", "viability z-score with doxorubicin": 0.9, "viability z-score without drug": -0.17}
{"gene knocked down": "Ncoa3 (nuclear receptor coactivator 3)", "combined z-score class": "no change with or without drug", "viability z-score with doxorubicin": 1.12, "viability z-score without drug": -1.85}
{"gene knocked down": "Rab5b (RAB5B, member RAS oncogene family)", "combined z-score class": "no change with or without drug", "viability z-score with doxorubicin": 0.11, "viability z-score without drug": 0.17}
{"gene knocked down": "Pclaf (PCNA clamp associated factor)", "combined z-score class": "low cell count with doxorubicin only (active)", "viability z-score with doxorubicin": -2.36, "viability z-score without drug": -0.84}
